Experimental data: patent US20110097410A1, “FORMULATIONS OF PX COMPOUNDS” (priority 2007, published 2011)
At least one compound was matched to its structure with a doubt left.

Tested on: ischemia-reperfusion in the heart
Assay: infarct size after regional ischemia/reperfusion in the heart
Type: in vivo, Rabbits
Protocol: The protective effect of PX-18 during ischemia-reperfusion in the heart was assessed. Since opening of mitochondrial KATP channels are essential components of ischemic tolerance induced by preconditioning in heart, the role of these channels in PX-18-induced cardioprotection was also examined. Briefly, 180 mg of PX-18 was put into a small homogenizing tube containing 3 ml of ethylene glycol in a homogenizing tube and warming it to about 50° C. Several bursts of sonication (about 10 seconds) were applied in a nitrogen gas bath to minimize oxidation, followed by homogenization. This procedure was repeated 4-5 times until a uniform cloudy proportion that was easily injected through a needle was obtained. Procedures of this type generate PX-18 particles of a size in the micrometer range. Rabbits were treated with the sonicated preparation, of PX-18 (60 mg/kg ip). 30 minutes later the hearts were subjected to 30 minutes of regional ischemia followed by 3 hours of reperfusion. Mitochondrial KATP channel blocker 5-hydroxydecanoate (5-HD, 5 mg/kg iv) was given 10 min before ischemia/reperfusion. Infarct size was measured by computer morphometry of tetrazolium stained sections.

SMILES | infarct size (% risk area, means+SE) (5-HD alone, 5 mg/kg iv 10 min before ischemia/reperfusion, not different from controls) | infarct size (% risk area, means+SE) (PX-18 60 mg/kg ip plus 5-HD 5 mg/kg iv 10 min before ischemia/reperfusion, P<0.05 vs. PX-18) | infarct size (% risk area, means+SE) (PX-18 60 mg/kg ip, sonicated preparation in ethylene glycol, 30 min before 30 min regional ischemia and 3 h reperfusion, vehicle 33.8=1.3%)
CCCCCC(O)CCCC(=O)O (stereo not drawn) [5-HD, 5-hydroxydecanoate, reference compound] | 34.9=1.1% | – | –
CCCCCCCC/C=C\CCCCCCCC(=O)OCCN(CCOC(=O)CCCCCCC/C=C\CCCCCCCC)CCS(=O)(=O)O [PX-18] | – | 31.9=1.2% | 193=1.0%
